# Assay results published in PubChem BioAssay AID602441 (National Center for Advancing Translational Sciences (NCATS), 2012).
# The whole screen tested about 1,300 compounds, of which fewer than 10 were called active. Not shown: some 9% with an inconclusive outcome. Calls follow the shape of the dose curve; as a rule, active = well fitted curve in the direction sought with a large enough effect; inconclusive = small, poorly fitted or top-dose-only effect, or another doubt; inactive = no such curve, though single readings can be large or run the other way. This is one part of the list.
# Test: qHTS for antagonists of the Thyroid Stimulation Hormone Receptor: Hit Validation in Parental Cell Line; also: 0% is about no effect
# Details: parental HEK293 cells lacking TSHR, counter-screen; series mostly up to 56.9 µM; activity change, negative = inhibition: at the top concentration
# Procedure, shortened: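 Counterscreen in untransfected parental HEK-EM 293 cells. Lysate cAMP displaces cAMP-d2 from cryptate-tagged anti-cAMP antibody, and homogeneous TR-FRET is read at 665 nm with 337 nm excitation after stimulation.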
row,Compound,"activity change, negative = inhibition"
1,CC(Sc1nnc2c(n1)[nH]c1ccccc12)C(=O)N(C)C1CCCCC1 (centres undefined),inactive: -1.27%
2,O=C(NCc1cccc(Cl)c1)c1cc(COc2ccc3ncccc3c2)on1,inactive: -2.71%
3,O=C(N[C@H]1C/C=C\C(c2cccc(F)c2)N(Cc2ccccc2)C(=O)C1)OCC1c2ccccc2-c2ccccc21 (some centres undefined),inactive: -10.5%
4,C/C(=N\Nc1cc(C)nc(-c2ccccc2O)n1)c1ccccc1,inactive: -2.22%
5,CCC(=O)N(CC)c1nc(-c2cc(OC)ccc2OC)cs1,inactive: 3.99%
6,COc1ccccc1NS(=O)(=O)c1cccc(NC(=O)c2nn(C)c(=O)c3ccccc23)c1,inactive: -3.68%
7,COc1cc(/C=C/C(=O)c2ccc(NS(=O)(=O)c3ccc(C)cc3)cc2)ccc1OC(F)F,inactive: 0.467%
8,COCc1c(C(=O)Nc2cccc(S(=O)(=O)N3CCCCC3)c2)oc2ccccc12,inactive: -5.73%
9,Fc1ccc2nc(Nc3nc4c(F)cc(F)cc4s3)sc2c1,inactive: -7.32%
10,COc1ccc(Cn2nnnc2C(C(C)C)N2CCN(c3ccccc3OC)CC2)cc1 (centres undefined),inactive: -3.62%
11,Cc1ccc(Nc2cc(C)nc3ccc(C)cc23)cc1,inactive: -8.63%
12,CC(=O)c1sc(NC(=O)c2cc(-c3ccccc3)nn2-c2ccccc2)nc1C,inactive: -4.77%
13,O=C(N/N=C/c1ccc[nH]1)c1sc2ccccc2c1Cl,inactive: -7.13%
14,O=C(COc1cccc(Cl)c1)Nc1nc(-c2ccc(S(=O)(=O)N3CCOCC3)cc2)cs1,inactive: -0.145%
15,CCN(c1cccc(C)c1)S(=O)(=O)c1cn(CC(=O)OC)c2ccc([N+](=O)[O-])cc12,inactive: -0.564%
16,Cc1onc(-c2ccccc2)c1NC(=O)N(Cc1ccccc1)C(C)C,inactive: 1.03%
17,Cn1c(=O)c(C(=O)NNC(=O)c2cccc(Cl)c2)c(O)c2ccccc21,inactive: 0.566%
18,CC(Sc1nnc(N)s1)c1ccccc1Cl (centres undefined),inactive: 2.91%
19,Cc1ccccc1CS(=O)(=O)c1nnc([C@H](Cc2ccccc2)NC(=O)OC(C)(C)C)o1,inactive: -0.204%
20,N#C/C(=N\Nc1cccc([N+](=O)[O-])c1)C(=O)c1ccc(Br)cc1,inactive: -6.36%
21,CCOc1ccc(-c2csc(/C(C#N)=C\c3ccc(O)c([N+](=O)[O-])c3)n2)cc1,inactive: -9.37%
22,O=C(NCCC1=CCCCC1)C1CCCN(S(=O)(=O)c2ccccc2)C1 (centres undefined),inactive: 2.38%

row,Compound,"activity change, negative = inhibition"
1,Cc1cc2c(NCc3ccccc3)ncnc2s1,inactive: -0.667%
2,CN(c1ccccc1)S(=O)(=O)c1ccc(NC(=O)c2nc(S(C)(=O)=O)ncc2Cl)cc1,inactive: -3.18%
3,O=C(CNC(=O)c1ccco1)OCC(=O)c1ccccc1,inactive: 3.89%
4,Cc1ccccc1C(=O)Nc1nnc(SCC(=O)NC2CC2)s1,inactive: -3.38%
5,CC(C)(C)OC(=O)N1CCC(CC2CC(c3cccc(Br)c3)=NO2)(C(=O)NCC2CCCCC2)CC1 (centres undefined),inactive: 1.37%
6,N#CC(C#N)=C1C=CC=CN1/C(=C\c1ccco1)C(=O)c1ccc(Cl)cc1,inactive: -3.41%
7,Cc1ccc(C)c(C(=O)OCC(=O)Nc2cccc(S(=O)(=O)N3CCCCC3)c2)c1,inactive: -4.33%
8,O=S1(=O)C=C(Sc2nc3cc(Cl)ccc3o2)c2ccccc21,inactive: -8.25%
9,O=c1[nH]nc(Cc2ccc(-c3cccc(Cl)c3)o2)c2ccccc12,inactive: 2.64%
10,N#Cc1ccc(C(=O)Nc2nc(-c3cccs3)c(C(=O)C(F)(F)F)s2)cc1,inactive: 3.95%
11,COc1ccc(/C=N/NC(=O)c2ccoc2C)cc1COc1c(C)cccc1C,inactive: -0.16%
12,Cc1ccc(C)c(N2CCN(S(=O)(=O)c3ccc4c(c3)CC(C)N4C(=O)C3CC3)CC2)c1 (centres undefined),inactive: 1.32%
13,CCCn1nc([N+](=O)[O-])c(C(C#N)c2nc3ccccc3o2)c(Cl)c1=O (centres undefined),inactive: -5.93%
14,Cc1cc(=O)oc2ccc(OCc3ccccc3)cc12,inactive: 4.66%
15,CCc1ccc(/C=C/C(=O)c2cc(Br)ccc(=O)c2O)cc1,inactive: 2.09%
16,O=C(Nc1ccccc1Cl)/C(Cl)=C(\Cl)S(=O)c1ccccc1 (centres undefined),inactive: -7.93%
17,Cc1ccc2oc(C(=O)N3CCCCCC3)c(C)c2c1,inactive: 2.05%
18,O=C(Nc1ccc(Br)cc1)c1cccc(S(=O)(=O)Nc2cnc3ccccc3c2)c1,inactive: -3.55%
19,COc1ccccc1NS(=O)(=O)c1ccc2oc(SCc3ccc(F)cc3)nc2c1,inactive: 1.69%
20,CC(=O)Nc1ccc(S(=O)(=O)Nc2c(NC3CCCCC3)c3ccccc3oc2=O)cc1,inactive: 3.23%
21,N#C/C(=N/Nc1ccc(OC(F)(F)F)cc1)C(N)=S,inactive: -5.72%
22,CCN(C(=O)c1cc2c(=O)n3ccccc3nc2n1C)C1CCCCC1,inactive: 4.43%

row,Compound,"activity change, negative = inhibition"
1,O=Cc1c[nH]c2ccc(C(=O)c3ccccc3)cc12,inactive: -2.24%
2,Cc1ccc(-c2cnc(C3CC3)o2)cc1S(=O)(=O)Nc1ccccc1,inactive: -2.96%
3,CC1=N/C(=C\c2ccc([N+](=O)[O-])cc2)C(=O)N1c1ccc(Cl)cc1,inactive: 4.34%
4,O=c1[nH]c(C2CCN(S(=O)(=O)c3cccc(Cl)c3)CC2)nc2c1nnn2Cc1ccccc1,inactive: -3.11%
5,COc1ccc(C(CC(=O)N2CCOCC2)c2c(OC)cc(OC)c3c(-c4ccccc4)cc(=O)oc23)cc1 (centres undefined),inactive: 0.693%
6,CCS(=O)(=O)c1ccc(C(=O)Nc2ccccc2)c(Cl)c1Cl,inactive: 4.07%
7,COC(CNC(=O)c1ccc(Cn2c(=S)[nH]c3cc4c(cc3c2=O)OCO4)cc1)OC,inactive: 0.363%
8,C=CS(=O)(=O)c1sc(Cl)c(N2CCOCC2)c1[N+](=O)[O-],inactive: -3.33%
9,CCOP(=O)(Cc1ccc(C(C)(C)CC(C)=O)o1)OCC,inactive: 5.52%
10,CCCCNC(=O)CC1C(=O)N(Cc2ccccc2)C(C)c2nc3ccccc3n21 (centres undefined),inactive: 3.57%
11,COc1ccccc1NC(=O)NNC(=O)CCN1CCOCC1,inactive: 0.0386%
12,CCOC(=O)c1sc(NC(=O)c2cc(-c3ccccc3C)nc3ccccc23)c(C#N)c1C,inactive: -2.33%
13,CC(=O)c1c(C)[nH]c(C(=O)COc2cc(C)ccc2C(C)C)c1C,inactive: 0.826%
14,CCCCNc1c(-c2cccc(-c3ccc(OC)cc3)c2)nc2ccc(C)cn12,inactive: -7.71%
15,Cc1ccc2cccc(Oc3ncnc4scc(-c5ccccc5)c34)c2n1,inactive: -3.49%
16,CN(C)c1ccc(N/C=C/C(=O)C(F)(F)F)cc1,inactive: -1.51%
17,CCC1Sc2ccc(S(=O)(=O)Nc3ccc(OC)c(OC)c3)cc2NC1=O (centres undefined),inactive: 3.17%
18,Cc1cc(NC(=O)c2ccccc2)c(Cl)cc1N,inactive: 6.38%
19,COc1ccc(CCNC2=C(Cl)C(=O)N(CCc3ccccc3)C2=O)cc1OC,inactive: -6.32%
20,C=CC[C@H](CC(=O)N(CCO)Cc1ccccc1)C(=O)N[C@H](COC(=O)[C@@H](CC=C)Cc1ccc(F)cc1)C(C)(C)C,inactive: 0.0369%

# An excerpt of these results, as tab-separated lines.
row	Compound	activity change, negative = inhibition
14	CCCCNc1c(-c2cccc(-c3ccc(OC)cc3)c2)nc2ccc(C)cn12	inactive: -7.71%
15	Cc1ccc2cccc(Oc3ncnc4scc(-c5ccccc5)c34)c2n1	inactive: -3.49%
16	CN(C)c1ccc(N/C=C/C(=O)C(F)(F)F)cc1	inactive: -1.51%
17	CCC1Sc2ccc(S(=O)(=O)Nc3ccc(OC)c(OC)c3)cc2NC1=O (centres undefined)	inactive: 3.17%
18	Cc1cc(NC(=O)c2ccccc2)c(Cl)cc1N	inactive: 6.38%
